This experiment addresses T1, TAP–Bag-1S (human), Q99933.
T1 chain: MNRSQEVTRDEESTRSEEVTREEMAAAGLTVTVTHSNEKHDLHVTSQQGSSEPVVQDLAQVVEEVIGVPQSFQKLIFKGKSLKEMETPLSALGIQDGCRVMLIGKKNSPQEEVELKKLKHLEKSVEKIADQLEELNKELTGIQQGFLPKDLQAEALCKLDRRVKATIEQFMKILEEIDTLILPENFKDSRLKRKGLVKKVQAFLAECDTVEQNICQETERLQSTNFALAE
In words: affinity purification with mass spectrometry; TAP-tagged Bag-1 isoform or Bag-1S mutant in lysate of transfected MCF-7 cells, captured on IgG Sepharose overnight at 4°C, released with AcTEV protease; in-solution trypsin digest, LC-MS/MS, label-free; enrichment >1.2-fold relative to TAP-only mock (mutants relative to wild-type TAP–Bag-1S). Particulars: remark: other sources report otherwise.

Results are given in words; binding and its absence hold for the method and conditions named. In cells and extracts the contact can be indirect. Here binding means that the protein was enriched with, or labelled near, the bait; the list need not be complete. No binding means not detected with the bait.

B1: CHIP, Q9UNE7 1-303 (protein)
chain: MKGKEEKEGGARLGAGGGSPEKSPSAQELKEQGNRLFVGRKYPEAAACYGRAITRNPLVAVYYTNRALCYLKMQQHEQALADCRRALELDGQSVKAHFFLGQCQLEMESYDEAIANLQRAYSLAKEQRLNFGDDIPSALRIAKKKRWNSIEERRIHQESELHSYLSRLIAAERERELEECQRNHEGDEDDSHVRAQQACIEAKHDKYMADMDELFSQVDEKRKKRDIPDYLCGKISFELMREPCITPSGITYDRKDIEEHLQRVGHFDPVTRSPLTQEQLIPNLAMKEVIDAFISENGWVEDY
In the case of B1, the binding entry is listed as “no binding”.
